The amount applied is not stated for every result.
Columns and labels:
Assay type in all cases: cell-based, Saccharomyces cerevisiae
Set-up in all cases: key: 0: SH3-independent; 1: SH3-dependent PPIs; 2: SH3-inhibited PPIs
BOI2 = test: DHFR-PCA on solid medium, bait BOI2 (Fig. 1B); details: bait BOI2, label = prey
Excerpt: (§1) Supplement 41467_2021_21873_MOESM8_ESM.xlsx, sheet "Fig1B" | column: medsize; medrep; Ratio; Score

BUD14 = test: DHFR-PCA on solid medium, bait BUD14 (Fig. 1B); details: bait BUD14, label = prey
Excerpt: as §1

BBC1 = test: DHFR-PCA on solid medium, bait BBC1 (Fig. 1B); details: bait BBC1, label = prey
Excerpt: as §1

BOI1 = test: DHFR-PCA on solid medium, bait BOI1 (Fig. 1B); details: bait BOI1, label = prey
Excerpt: as §1

B1: YHR064C (protein, UniProt P38788 1-538, looked up)
Ribosome-associated complex …: MSSPVIGITFGNTSSSIAYINPKNDVDVIANPDGERAIPSALSYVGEDEYHGGQALQQLIRNPKNTIINFRDFIGLPFDKCDVSKCANGAPAVEVDGKVGFVISRGEGKEEKLTVDEVVSRHLNRLKLAAEDYIGSAVKEAVLTVPTNFSEEQKTALKASAAKIGLQIVQFINEPSAALLAHAEQFPFEKDVNVVVADFGGIRSDAAVIAVRNGIFTILATAHDLSLGGDNLDTELVEYFASEFQKKYQANPRKNARSLAKLKANSSITKKTLSNATSATISIDSLADGFDYHASINRMRYELVANKVFAQFSSFVDSVIAKAELDPLDIDAVLLTGGVSFTPKLTTNLEYTLPESVEILGPQNKNASNNPNELAASGAALQARLISDYDADELAEALQPVIVNTPHLKKPIGLIGAKGEFHPVLLAETSFPVQKKLTLKQAKGDFLIGVYEGDHHIEEKTLEPIPKEENAEEDDESEWSDDEPEVVREKLYTLGTKLMELGIKNANGVEIIFNINKDGALRVTARDLKTGNAVKGEL
Score (BOI2): 0
Score (BUD14): 1
Score (BBC1): 0

B2: YIL033C (protein, UniProt P07278 2-416, looked up)
cAMP-dependent protein kinase …: VSSLPKESQAELQLFQNEINAANPSDFLQFSANYFNKRLEQQRAFLKAREPEFKAKNIVLFPEPEESFSRPQSAQSQSRSRSSVMFKSPFVNEDPHSNVFKSGFNLDPHEQDTHQQAQEEQQHTREKTSTPPLPMHFNAQRRTSVSGETLQPNNFDDWTPDHYKEKSEQQLQRLEKSIRNNFLFNKLDSDSKRLVINCLEEKSVPKGATIIKQGDQGDYFYVVEKGTVDFYVNDNKVNSSGPGSSFGELALMYNSPRAATVVATSDCLLWALDRLTFRKILLGSSFKKRLMYDDLLKSMPVLKSLTTYDRAKLADALDTKIYQPGETIIREGDQGENFYLIEYGAVDVSKKGQGVINKLKDHDYFGEVALLNDLPRQATVTATKRTKVATLGKSGFQRLLGPAVDVLKLNDPTRH
Score (BOI2): 0
Score (BUD14): 0
Score (BBC1): 0
Score (BOI1): 0

B3: YLR332W (protein, UniProt P36027 26-376, looked up)
Cell wall integrity sensor …: QFFVQSSSSNSSAVSTARSSVSRVSSSSSILSSSMVSSSSADSSSLTSSTSSRSLVSHTSSSTSIASISFTSFSFSSDSSTSSSSSASSDSSSSSSFSISSTSATSESSTSSTQTSTSSSSSLSSTPSSSSSPSTITSAPSTSSTPSTTAYNQGSTITSIINGKTILSNHYTTVTYTPSATADSSNKSKSSGLSKKNRNIVIGCVVGIGVPLILVILALIYMFCIQSSRTDFIDSDGKVVTAYRANKFTKWWYMLLGKKVSDEYHSDSPLGGSASSAGGLDLDEADDVMEQSSLFDVRIRDSDSVLPNANTADHNNTNSGGEPINSSVASNDIIEEKFYDEQGNELSPRNY
Score (BOI2): 0
Score (BUD14): 0
Score (BBC1): 0
Score (BOI1): 0

B4: YKL117W (protein, UniProt P28707 2-216, looked up)
Co-chaperone protein SBA1: SDKVINPQVAWAQRSSTTDPERNYVLITVSIADCDAPELTIKPSYIELKAQSKPHVGDENVHHYQLHIDLYKEIIPEKTMHKVANGQHYFLKLYKKDLESEYWPRLTKEKVKYPYIKTDFDKWVDEDEQDEVEAEGNDAAQGMDFSQMMGGAGGAGGAGGMDFSQMMGGAGGAGSPDMAQLQQLLAQSGGNLDMGDFKENDEEDEEEEIEPEVKA
Score (BUD14): 0
Score (BBC1): 1

B5: YGR238C (protein, UniProt P50090 1-882, looked up)
Kelch repeat-containing …: MVPFKLTNKVPTDTGPSLISAQSVPRPIVFMDNRNNTRIVTPTLPPNQHRGISGASTALPWSPESKNTGKYIWNRVKLKNSPFPRYRHSSSFIVTNDNRIFVTGGLHDQSVYGDVWQIAANADGTSFTSKRIDIDQNTPPPRVGHASTICGNAYVVFGGDTHKLNKNGLLDDDLYLFNINSYKWTIPQPIGRRPLGRYGHKISIIASNPMQTKLYLFGGQVDETYFNDLVVFDLSSFRRPNSHWEFLEPVGDLPPPLTNHTMVAYDNKLWVFGGETPKTISNDTYRYDPAQSEWSKVKTTGEKPPPIQEHASVVYKHLMCVLGGKDTHNAYSNDVYFLNLLSLKWYKLPRMKEGIPQERSGHSLTLMKNEKLLIMGGDKTDYASPNIHDLQTSETDQGEGTLLYTLDLSSLNELCPGIMCESLHAGESFSNSLSGGFTPSKSTESENQEIINILTPRLPDSKVLSYNDIDEGAGSYSSALDDKAFERKSDREEKKPQSSKVDSSINKESPGTGIKVSKKNFPVLRGLTVDSEEYGSSSYKDTSCQKGIPKNLFDDLNLNLQTLRLEAQQKELETARHISQLEKEVQRLMVIKEASKDSNFQTARLKNLEIQKTFLESRINDLKNLLMVKLSQASKLCDQITIQNNGLKTCSEHVTIKRDIIDLENKCDVLKRQNEILVNNMQKITPELHTYLNESSCYLGKLLKSYPTSARPPSSEKDNQIYEKDSLNKIEKVINEMHETVRAKEKLHLETQKLNDERDSLRANLLDNNNKLDALRKLSDGSSKSMDLTKKAIHLSQSELEKYRKNNDDLQKEIDRIKTEQAEQDDKQEQRGAITHGNFDAFHRMKINNLKAELYMSKENRDSLKDELLALKKKLYTLEQKK
Score (BUD14): 0

B6: YHR158C (protein, UniProt P38853 1-1164, looked up)
Kelch repeat-containing …: MAGFSFAKKFTHKKHGKTPSDASISDQSREASLSTPPNEKFFTKQETPQKGRQFSQGYHSNVNKTSSPPMFARKQVSESRIQPSAVPPQQRNVSGPSTTLHKQLSKQREYTVWNRIKLQNSPFPRYRHVASAYVTDKNQIYVIGGLHDQSVYGDTWILTAFDNATRFSTTTIDISEATPPPRVGHAAVLCGNAFVVFGGDTHKVNKEGLMDDDIYLLNINSYKWTVPAPVGPRPLGRYGHKISIIATTQMKTKLYVFGGQFDDTYFNDLAVYDLSSFRRPDSHWEFLKPRTFTPPPITNFTMISYDSKLWVFGGDTLQGLVNDVFMYDPAINDWFIIDTTGEKPPPVQEHATVVYNDLMCVVGGKDEHDAYLNSVYFLNLKSRKWFKLPVFTAGIPQGRSGHSLTLLKNDKILIMGGDKFDYARVEEYDLHTSDIDMQRGTIVYTLDLARIKDLCPGVMDVPTDTPTPRNGNLDLATPVTPTSHQTKNMNVPISAAPLASAPSPAPKDFSDADRLNREVHNRNVSTEHQNQSHPVNSESHLIAEPNILTPYVPSESSQTPVMKITSNKPFDTPTIQKEPDLSETMDPTVGNQRIPSSIYGDNLTPANQIKNNSPILETLPSNEIKTPQNGNIEEIKHLPDADEKIDSTTTFDQEINGDKLGTSSMSKVEEDGNVADEDDEIGVAQMASSPSKDQFKIKHYNESSELSQNNTEIDKLSEPVDITIKKSDTAGHDSANHVIDASDEKNVSPMGDVPTDTKNEEASVPINRDATTEVVDRALFEKLRSELQSLKELTHEKALEAGAHIKELETELWQLKSQKNSGTTKEIDELDSVRLQSKCEILEADNHSLEDKVNELEELVNSKFLDIENLNEVIQFQNEKIKSLELEPNYKEKLEELQIEHENLSRENERLKNESKQHNEDIINNVANYSSQLGSLISHWKENRANSSFLESSSSLISVSDENGEKTVGEPYGDQSRHHRVVINKLTNRLDDLLERSQELTISKEKLSSEYHALKMEHSSLSQDVLVKENEIKKIQNDYKESISSMDSASKALMVSQRELEKYKSLNKKLIDELDELKFKNGVCSENFENGLRSTEESSNNVKNSNSIRENQFNIKINDLKAELFITNQERDDLKSEVLELKKRLLNLENNTKQVNEDADSDLL
Score (BUD14): 0

B7: YER149C (protein, UniProt P40091 1-420, looked up)
Protein PEA2: MHKFDLELSRRANPLLFSAERYEEYPLKYDELKQYLLSQNPSHPHHNSRPYTSIDYFDYLLYRSKNDESEIDLDKKLVSEFALYYVQKEHLNSDDLNPTLNELLKLQPKSADWYEMMLRILESINTTGIDQLTKENNNSFPNSKRARSSTNMGGTDKFNKGAYHTDKADDDKNEILQELTSFLMSNSIQKGIDIKPIPLDDPVKFLKNGINSILDTCVSLEKNTSSPPISPNAAAIQEEDSSKKLEELETAFSDLQLAHNFLTKQFENDRAEYVQDIEKLTRTNRELQDKLLNNHSNLSKTEKKLHELEQENKELEKANNKLNSSRHNFGMSSPASSPVTWDPSSPSSVGSPTSGSGSRSLSIMTSEFKKVLTSTQRKYEKELSDEREHRFKLERELALLKNAEANTSLALNRDDPPDML
Score (BUD14): 1

From publication PMC7954794, “Protein context shapes the specificity of SH3 domain-mediated interactions in vivo” (Nature Communications, 2021)
